Test in all cases: log2 fold change, soluble protein after heating vs DMSO (PISA); higher = thermal stabilisation; K562 cells, 10 uM, 30 min; active = over 0.2 and 3.5 SD of the protein, either way, in both replicates (recomputed)
Compound in experiment [1]: NC(=O)Nc1cc(-c2cccc(F)c2)sc1C(=O)N[C@H]1CCCNC1
The essentials: (§1)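 Quantification of soluble protein used TMTpro 16plex LC-MS/MS, with channel sums equalised. Samples were the supernatant after 21,000xg for 90 min of pooled aliquots from K562 cells (2×10^6 cells/mL) treated with 10 μM compound for 30 min, heated for 3 min over 48°C-58°C, and extracted in PBS with 0.5% NP-40 at 4°C. Values, from duplicates, describe thermal stability against control samples on a log2 fold-change scale.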

The chains behind the UniProt entries cited, without tags or fusion partners. Where a name states a change or a piece, a line headed by the entry shows the natural chain unless it says otherwise.
UniProt P84095: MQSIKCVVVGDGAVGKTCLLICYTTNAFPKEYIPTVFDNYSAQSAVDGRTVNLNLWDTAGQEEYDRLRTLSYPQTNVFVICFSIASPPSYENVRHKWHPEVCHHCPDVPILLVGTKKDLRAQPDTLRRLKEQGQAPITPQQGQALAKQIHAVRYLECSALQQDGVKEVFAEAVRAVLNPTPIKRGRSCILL
UniProt Q5XPI4: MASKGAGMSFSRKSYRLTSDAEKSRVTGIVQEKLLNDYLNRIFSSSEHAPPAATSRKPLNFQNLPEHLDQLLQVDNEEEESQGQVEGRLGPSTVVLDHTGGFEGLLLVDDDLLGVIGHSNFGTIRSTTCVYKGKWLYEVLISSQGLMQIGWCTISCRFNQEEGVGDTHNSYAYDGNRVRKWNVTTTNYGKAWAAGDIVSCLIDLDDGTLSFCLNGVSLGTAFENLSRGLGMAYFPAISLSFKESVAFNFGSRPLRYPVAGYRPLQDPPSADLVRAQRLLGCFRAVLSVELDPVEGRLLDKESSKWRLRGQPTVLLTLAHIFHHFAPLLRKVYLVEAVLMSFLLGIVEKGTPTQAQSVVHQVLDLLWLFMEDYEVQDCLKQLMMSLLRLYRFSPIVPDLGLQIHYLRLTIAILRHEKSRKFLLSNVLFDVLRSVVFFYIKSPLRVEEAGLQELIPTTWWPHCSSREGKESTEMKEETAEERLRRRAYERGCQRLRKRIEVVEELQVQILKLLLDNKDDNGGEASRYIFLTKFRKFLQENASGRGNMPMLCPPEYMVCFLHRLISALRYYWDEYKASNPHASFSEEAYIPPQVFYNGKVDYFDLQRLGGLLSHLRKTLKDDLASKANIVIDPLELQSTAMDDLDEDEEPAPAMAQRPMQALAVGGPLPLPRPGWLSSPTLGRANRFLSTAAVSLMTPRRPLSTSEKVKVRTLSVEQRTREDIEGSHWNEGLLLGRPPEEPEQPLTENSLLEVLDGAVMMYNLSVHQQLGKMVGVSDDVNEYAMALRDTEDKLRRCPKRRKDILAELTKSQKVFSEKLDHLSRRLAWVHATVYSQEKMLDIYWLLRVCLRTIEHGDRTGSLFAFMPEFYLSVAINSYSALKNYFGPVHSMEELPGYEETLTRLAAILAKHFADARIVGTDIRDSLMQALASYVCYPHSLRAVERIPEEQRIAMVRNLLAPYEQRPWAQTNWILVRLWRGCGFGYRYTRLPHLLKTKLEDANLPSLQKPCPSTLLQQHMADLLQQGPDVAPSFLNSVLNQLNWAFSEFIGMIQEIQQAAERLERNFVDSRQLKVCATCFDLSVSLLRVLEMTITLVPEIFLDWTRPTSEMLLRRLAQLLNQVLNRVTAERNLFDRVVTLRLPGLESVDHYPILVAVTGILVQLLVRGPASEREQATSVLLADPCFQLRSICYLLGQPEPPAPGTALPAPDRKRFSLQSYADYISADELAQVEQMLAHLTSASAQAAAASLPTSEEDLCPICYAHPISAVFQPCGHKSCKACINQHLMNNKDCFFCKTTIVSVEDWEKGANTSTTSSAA
UniProt Q5TA31: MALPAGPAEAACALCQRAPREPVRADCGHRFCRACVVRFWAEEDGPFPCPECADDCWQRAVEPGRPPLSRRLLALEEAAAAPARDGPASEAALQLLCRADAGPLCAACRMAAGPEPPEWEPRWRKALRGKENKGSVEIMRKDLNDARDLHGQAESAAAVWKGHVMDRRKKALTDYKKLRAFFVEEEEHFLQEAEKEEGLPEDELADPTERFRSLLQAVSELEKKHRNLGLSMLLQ
UniProt Q96HR9: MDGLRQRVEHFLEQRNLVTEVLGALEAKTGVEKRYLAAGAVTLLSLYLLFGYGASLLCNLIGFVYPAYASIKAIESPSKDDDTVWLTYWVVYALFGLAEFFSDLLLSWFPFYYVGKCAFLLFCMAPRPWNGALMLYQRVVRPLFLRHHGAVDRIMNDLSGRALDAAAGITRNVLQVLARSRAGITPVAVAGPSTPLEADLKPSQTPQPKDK
UniProt Q13546: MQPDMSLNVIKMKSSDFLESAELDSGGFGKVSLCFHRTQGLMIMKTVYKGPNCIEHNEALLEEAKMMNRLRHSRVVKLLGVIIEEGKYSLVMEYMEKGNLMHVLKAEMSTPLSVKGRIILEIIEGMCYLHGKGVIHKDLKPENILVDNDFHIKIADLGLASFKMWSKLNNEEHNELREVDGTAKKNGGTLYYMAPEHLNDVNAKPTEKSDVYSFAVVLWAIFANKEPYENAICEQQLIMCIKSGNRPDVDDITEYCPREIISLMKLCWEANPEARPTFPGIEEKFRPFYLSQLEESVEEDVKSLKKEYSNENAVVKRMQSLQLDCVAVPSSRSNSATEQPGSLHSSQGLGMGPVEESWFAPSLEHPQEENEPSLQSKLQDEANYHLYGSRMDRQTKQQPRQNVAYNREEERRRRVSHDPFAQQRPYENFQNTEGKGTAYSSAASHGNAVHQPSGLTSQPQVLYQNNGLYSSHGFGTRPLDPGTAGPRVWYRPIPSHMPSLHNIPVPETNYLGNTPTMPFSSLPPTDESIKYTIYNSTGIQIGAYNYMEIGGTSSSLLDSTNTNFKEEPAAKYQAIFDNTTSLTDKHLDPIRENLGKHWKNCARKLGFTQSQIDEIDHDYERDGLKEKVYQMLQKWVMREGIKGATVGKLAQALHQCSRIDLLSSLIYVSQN
UniProt Q9BVS4: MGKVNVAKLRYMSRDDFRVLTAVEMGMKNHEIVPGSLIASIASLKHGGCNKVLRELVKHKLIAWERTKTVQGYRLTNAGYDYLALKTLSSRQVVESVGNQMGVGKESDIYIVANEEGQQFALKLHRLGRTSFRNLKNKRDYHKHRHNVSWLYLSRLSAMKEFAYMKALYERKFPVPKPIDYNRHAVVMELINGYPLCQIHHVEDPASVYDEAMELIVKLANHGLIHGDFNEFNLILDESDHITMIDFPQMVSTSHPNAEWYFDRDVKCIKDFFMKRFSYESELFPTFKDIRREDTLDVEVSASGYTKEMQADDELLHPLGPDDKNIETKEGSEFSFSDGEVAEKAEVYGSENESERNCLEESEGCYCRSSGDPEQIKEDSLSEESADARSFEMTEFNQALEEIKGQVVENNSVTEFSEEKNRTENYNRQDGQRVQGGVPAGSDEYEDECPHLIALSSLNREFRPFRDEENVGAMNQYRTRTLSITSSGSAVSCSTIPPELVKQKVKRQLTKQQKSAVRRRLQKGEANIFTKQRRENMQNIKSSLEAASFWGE
UniProt P08134, whole entry, looked up: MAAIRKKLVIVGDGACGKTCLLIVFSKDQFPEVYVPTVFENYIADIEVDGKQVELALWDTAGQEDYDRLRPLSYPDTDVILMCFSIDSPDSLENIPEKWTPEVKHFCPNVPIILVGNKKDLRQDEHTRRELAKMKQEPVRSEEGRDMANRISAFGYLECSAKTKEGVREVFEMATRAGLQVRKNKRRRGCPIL
UniProt Q8TAC1: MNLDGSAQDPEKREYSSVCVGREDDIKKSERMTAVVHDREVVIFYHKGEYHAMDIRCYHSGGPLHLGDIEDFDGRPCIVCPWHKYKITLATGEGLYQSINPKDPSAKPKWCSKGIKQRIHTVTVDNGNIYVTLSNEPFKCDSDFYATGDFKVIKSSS
UniProt Q96TC7: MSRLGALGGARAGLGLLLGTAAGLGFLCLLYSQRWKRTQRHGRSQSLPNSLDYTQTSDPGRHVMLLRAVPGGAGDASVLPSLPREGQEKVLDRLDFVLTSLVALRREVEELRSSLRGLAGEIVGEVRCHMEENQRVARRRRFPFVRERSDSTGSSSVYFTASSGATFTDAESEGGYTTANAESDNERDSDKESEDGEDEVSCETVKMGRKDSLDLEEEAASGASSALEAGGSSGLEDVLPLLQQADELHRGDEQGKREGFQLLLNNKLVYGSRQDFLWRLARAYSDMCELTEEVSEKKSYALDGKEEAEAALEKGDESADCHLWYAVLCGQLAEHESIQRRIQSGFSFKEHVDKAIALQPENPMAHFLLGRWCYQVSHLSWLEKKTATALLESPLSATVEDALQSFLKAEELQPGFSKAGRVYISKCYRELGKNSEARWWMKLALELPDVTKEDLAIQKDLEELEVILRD
UniProt P40938, whole entry, looked up: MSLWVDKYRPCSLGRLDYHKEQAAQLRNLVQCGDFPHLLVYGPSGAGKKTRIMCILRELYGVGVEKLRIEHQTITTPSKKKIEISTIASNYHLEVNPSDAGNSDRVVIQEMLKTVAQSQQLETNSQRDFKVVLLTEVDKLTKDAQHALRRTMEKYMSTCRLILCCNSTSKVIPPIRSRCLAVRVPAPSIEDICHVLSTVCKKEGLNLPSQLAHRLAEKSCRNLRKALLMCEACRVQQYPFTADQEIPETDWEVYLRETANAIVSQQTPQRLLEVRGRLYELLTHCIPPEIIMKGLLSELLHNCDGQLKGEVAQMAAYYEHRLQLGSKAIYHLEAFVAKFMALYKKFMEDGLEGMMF
UniProt Q8IZV5: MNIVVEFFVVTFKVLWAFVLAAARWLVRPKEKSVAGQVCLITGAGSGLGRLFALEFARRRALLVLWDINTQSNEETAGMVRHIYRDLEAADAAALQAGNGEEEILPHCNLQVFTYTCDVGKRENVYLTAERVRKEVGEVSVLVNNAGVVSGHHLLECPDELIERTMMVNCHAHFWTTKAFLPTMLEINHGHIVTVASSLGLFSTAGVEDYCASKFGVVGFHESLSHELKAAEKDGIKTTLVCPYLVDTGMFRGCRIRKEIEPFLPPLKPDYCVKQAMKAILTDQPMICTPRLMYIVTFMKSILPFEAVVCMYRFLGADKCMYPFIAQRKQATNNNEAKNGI
UniProt Q9HBH5: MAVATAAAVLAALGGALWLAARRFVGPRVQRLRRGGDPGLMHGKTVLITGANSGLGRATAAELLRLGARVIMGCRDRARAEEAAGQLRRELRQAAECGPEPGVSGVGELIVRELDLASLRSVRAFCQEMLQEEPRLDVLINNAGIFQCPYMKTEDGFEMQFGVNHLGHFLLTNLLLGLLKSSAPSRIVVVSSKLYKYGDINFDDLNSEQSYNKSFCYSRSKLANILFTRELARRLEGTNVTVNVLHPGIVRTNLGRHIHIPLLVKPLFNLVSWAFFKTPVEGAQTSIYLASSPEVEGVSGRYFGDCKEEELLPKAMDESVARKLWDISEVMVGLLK
UniProt O14730: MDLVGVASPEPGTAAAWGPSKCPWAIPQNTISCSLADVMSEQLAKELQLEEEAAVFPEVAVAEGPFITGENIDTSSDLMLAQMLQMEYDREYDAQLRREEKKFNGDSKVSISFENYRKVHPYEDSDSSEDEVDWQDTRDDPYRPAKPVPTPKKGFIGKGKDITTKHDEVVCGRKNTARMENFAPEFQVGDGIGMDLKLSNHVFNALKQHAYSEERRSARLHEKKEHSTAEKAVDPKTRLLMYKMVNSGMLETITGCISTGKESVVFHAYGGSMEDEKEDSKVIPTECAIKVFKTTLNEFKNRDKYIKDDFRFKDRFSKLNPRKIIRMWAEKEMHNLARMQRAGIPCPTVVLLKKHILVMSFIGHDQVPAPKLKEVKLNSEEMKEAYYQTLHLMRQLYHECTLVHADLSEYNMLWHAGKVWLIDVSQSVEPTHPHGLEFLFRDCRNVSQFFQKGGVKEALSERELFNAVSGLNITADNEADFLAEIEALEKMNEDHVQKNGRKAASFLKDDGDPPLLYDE

Compound in experiment [2]: NC(=O)c1cnc(N[C@@H]2CCCC[C@@H]2N)nc1Nc1cccc(-n2nccn2)c1
The essentials: as §1

Compound in experiment [3]: NC1(c2ccc(-c3nc4ccn5c(=O)[nH]nc5c4cc3-c3ccccc3)cc2)CCC1
The essentials:
as §1

Compound in experiment [4]: NCC(=O)Nc1ccc(-n2nc(C(F)(F)F)cc2-c2ccc3c(ccc4ccccc43)c2)cc1
The essentials:
as §1

Compound in experiment [5]: Nc1ccccc1NC(=O)c1ccc(CNC(=O)OCc2cccnc2)cc1 [entinostat]
In short, it runs like this: as §1

Compound in experiment [6]: O=C(CCCCCCC(=O)Nc1ccccc1)NO [vorinostat]
In short, it runs like this: as §1

Compound in experiment [7]: O=C(CCCCCCNC(=O)c1cnc(N(c2ccccc2)c2ccccc2Cl)nc1)NO [citarinostat]
In short, it runs like this:
as §1

Compound in experiment [8]: O=C(O)c1ccc2c(c1)nc(Nc1cccc(Cl)c1)c1ccncc12 [silmitasertib]
In short, it runs like this:
as §1

Compound in experiment [9]: O=C1NC(=O)C(c2cnc3ccccn23)=C1c1cn2c3c(cc(F)cc13)CN(C(=O)N1CCCCC1)CC2
The essentials:
as §1

Compound in experiment [10]: c1cc(OCCN2CCCCC2)cc(-c2n[nH]c3ccc(-c4nnc[nH]4)cc23)c1
The essentials:
as §1

Some of the results follow.

On to RHOG (UniProt P84095), for which the log2 fold change in experiment [1] is inactive: -0.026; in [2], inactive: 0.029; in experiment [3] it was inactive: 0.016; in experiment [4], inactive: -0.004; in [5], inactive: -0.039; in [6], inactive: -0.027. In addition, the log2 fold change was inactive: 0.037 in experiment [7], inactive: -0.046 in [8], inactive: -0.058 in experiment [9] and inactive: 0.054 in experiment [10].
RNF123 isoform 2 (UniProt Q5XPI4): the log2 fold change in experiment [1] is inactive: -0.062; in experiment [2] it was inactive: -0.051; in experiment [3], inactive: -0.093; in experiment [4] it was inactive: -0.03; in [5], inactive: -0.013; in [6] it was inactive: 0.023. Also, the log2 fold change in [7] is inactive: 0.047; in experiment [8] it was inactive: 0.085; in experiment [9], inactive: -0.059; in [10] it was inactive: -0.042.
On to RNF187 (UniProt Q5TA31), for which the log2 fold change in experiment [1] is inactive: 0.004; in experiment [2], inactive: -0.056; in experiment [3], inactive: -0.033; in experiment [4] it was inactive: 0.07; in experiment [5], inactive: -0.019; in experiment [6], inactive: 0.095. The log2 fold change was inactive: 0.054 in [7], inactive: 0.012 in [8], inactive: -0.061 in [9] and inactive: 0.035 in experiment [10].
With REEP6 (UniProt Q96HR9), the log2 fold change in experiment [1] was inactive: -0.044; in experiment [2], inactive: -0.092; in [3], inactive: -0.017; in experiment [4], inactive: 0.015; in [5] it was inactive: -0.017; in experiment [6], inactive: -0.137. Besides, the log2 fold change in [7] was inactive: 0.031; in experiment [8], inactive: 0.03; in [9] it was inactive: -0.031; in experiment [10] it was inactive: 0.002.
Consider RIPK1 (UniProt Q13546), for which the log2 fold change in experiment [1] is inactive: 0.037; in [2] it was inactive: -0.06; in experiment [3], inactive: -0.092; in experiment [4], inactive: -0.009; in experiment [5] it was inactive: 0.088; in experiment [6], inactive: -0.014. Moreover, the log2 fold change in experiment [7] was inactive: -0.006; in [8], inactive: 0.025; in experiment [9] it was inactive: 0.205; in [10], inactive: 0.047.
For RIOK2 (UniProt Q9BVS4), the log2 fold change was inactive: -0.008 in [1]; active: 0.351 in experiment [2]; inactive: 0.04 in [3]; inactive: 0.027 in experiment [4]; inactive: -0.041 in experiment [5]; inactive: -0.044 in experiment [6]. Further, the log2 fold change was inactive: -0.067 in [7], inactive: 0.018 in experiment [8], inactive: 0.086 in experiment [9] and inactive: -0.071 in experiment [10].
Regarding RHOC (UniProt P08134), the log2 fold change in [1] is inactive: -0.003; in [2], inactive: -0.015; in experiment [3], inactive: -0.01; in experiment [4], inactive: 0.047; in experiment [5] it was inactive: -0.024; in experiment [6], inactive: -0.008. The log2 fold change in [7] was inactive: 0.039; in experiment [8] it was inactive: -0.005; in experiment [9] it was inactive: -0.022; in experiment [10] it was inactive: -0.002.
As for RFESD isoform 2 (UniProt Q8TAC1), the log2 fold change in experiment [1] is inactive: 0.016; in experiment [2] it was inactive: 0.007; in experiment [3], inactive: -0.002; in experiment [4], inactive: 0.019; in [5], inactive: -0.061; in [6], inactive: -0.072. In addition, the log2 fold change in [7] was inactive: 0.044; in experiment [8] it was inactive: 0.061; in experiment [9], inactive: -0.039; in experiment [10] it was inactive: -0.054.
With RMDN3 (UniProt Q96TC7), the log2 fold change in experiment [1] is inactive: -0.032; in experiment [2], inactive: -0.048; in experiment [3] it was inactive: -0.076; in experiment [4], inactive: -0.031; in [5], inactive: 0.004; in [6], inactive: 0.008. In addition, the log2 fold change is inactive: 0.033 in experiment [7], inactive: -0.007 in experiment [8], inactive: -0.065 in experiment [9] and inactive: -0.027 in [10].
In the case of RFC3 (UniProt P40938), the log2 fold change is inactive: -0.001 in experiment [1]; inactive: -0.039 in experiment [2]; inactive: -0.078 in [3]; inactive: -0.023 in [4]; inactive: -0.028 in experiment [5]; inactive: 0.028 in experiment [6]. Further, the log2 fold change was inactive: 0.077 in [7], inactive: -0.006 in experiment [8], inactive: -0.039 in experiment [9] and inactive: -0.013 in experiment [10].
Consider RDH10 (UniProt Q8IZV5), for which the log2 fold change is inactive: -0.033 in [1]; inactive: -0.017 in experiment [2]; inactive: -0.016 in experiment [3]; inactive: 0.015 in experiment [4]; inactive: 0.015 in experiment [5]; inactive: -0.069 in experiment [6]. Moreover, the log2 fold change in [7] was inactive: -0.019; in [8], inactive: -0.097; in experiment [9], inactive: -0.039; in experiment [10] it was inactive: 0.012.
Consider RDH14 (UniProt Q9HBH5), for which the log2 fold change was inactive: -0.039 in experiment [1]; inactive: -0.052 in experiment [2]; inactive: 0.101 in experiment [3]; inactive: -0.016 in [4]; inactive: -0.038 in [5]; inactive: -0.053 in experiment [6]. In addition, the log2 fold change in experiment [7] is inactive: -0.003; in [8] it was inactive: 0.002; in experiment [9], inactive: 0.065; in experiment [10], inactive: 0.154.
Take RIOK3 (UniProt O14730): the log2 fold change in [1] was inactive: 0.047; in [2], inactive: -0.005; in experiment [3], inactive: -0.061; in experiment [4], inactive: 0.015; in experiment [5], inactive: -0.005; in experiment [6], inactive: 0.043. Further, the log2 fold change in experiment [7] is inactive: 0.036; in experiment [8] it was inactive: -0.011; in [9] it was inactive: 0.057; in experiment [10] it was inactive: -0.046.

(Values after the supplement of paper PMC10849652.)
